Values quoted from earlier work, collected in US6027748A, “Pharmaceutical tablet, completely coated, for controlled release of active principles that present problems of bio-availability linked to gastro-intestinal absorption” (Jagotec AG, priority 1997, dated 2000).

Details: food in stomach and first portion of small intestine

COC(=O)C1=C(C)NC(C)=C(C(=O)OC)C1c1ccccc1[N+](=O)[O-] [nifedipine]
effect of presence of food on absorption: dramatically affected by the presence of food
